According to patent US20050158313A1:
These are yes or no findings as the source states them, for the method shown. Some binding calls cover weakened binding; strength is not graded here. Blank lines part the entries; values can stand above or below the binder they belong to.

Target: Reg IV polypeptide (human) (UniProt Q9BYZ8)
Test: phage display selection of scFvs on Reg IV

binding: binds
B1: RGC0145 (scFv)
scFv: EVQLVQSGAEVKKPGSSVKISCEVSGGIFKNYAISWVRQAPGQGLEWMGGSIPMYGTPSYAPKFQGRVTIIADESTSTAYMELSSLRSEDTAMYYCARETTEVDDAFNIWGRGTLVTVSSGGGGSGGGGSGGGGSAQSVLTQPPSVSAAPRQRVTISCSGSSSNIGNNVVNWYQHFPGKAPRLLIFPDSLLSDRFSGSKSGTSASLAISGLQSDDEAEYYCASWDDSLNGLVFGGGTKLTVLG

binding: binds
B2: RGD0122 (scFv)
scFv: EVQLLESGEGLVQPGGSLRLSCAASGFTFSSYAMSWVRQAPGKGLEWVSAISGSGGSTYYADSVKGRFTISRDNSKNTLYLQMNSLRAEDTAVYYCATDPYYDSSGYYPFSYWGKGTTVTVSSGGGGSGGGGSGGGGSAQSVLTQPPSVSVAPGQTATITCGGDFATKSVNWYQRKPGQAPVTVIYYSTERPPAIPERFSGSNTGSTATLTISRVEAGDEADYYCQVWDSFTDHRLFGGGTKLTVLG
